In patent US20080254465:
Results from cells or extracts need not show a direct contact. For part of these data: The exact form of at least one protein or probe is not confirmed.

Protein sequences, listed by entry. Tags and fused reporters are not part of them. Residues count along the entry.
UniProt P08047, 2-785: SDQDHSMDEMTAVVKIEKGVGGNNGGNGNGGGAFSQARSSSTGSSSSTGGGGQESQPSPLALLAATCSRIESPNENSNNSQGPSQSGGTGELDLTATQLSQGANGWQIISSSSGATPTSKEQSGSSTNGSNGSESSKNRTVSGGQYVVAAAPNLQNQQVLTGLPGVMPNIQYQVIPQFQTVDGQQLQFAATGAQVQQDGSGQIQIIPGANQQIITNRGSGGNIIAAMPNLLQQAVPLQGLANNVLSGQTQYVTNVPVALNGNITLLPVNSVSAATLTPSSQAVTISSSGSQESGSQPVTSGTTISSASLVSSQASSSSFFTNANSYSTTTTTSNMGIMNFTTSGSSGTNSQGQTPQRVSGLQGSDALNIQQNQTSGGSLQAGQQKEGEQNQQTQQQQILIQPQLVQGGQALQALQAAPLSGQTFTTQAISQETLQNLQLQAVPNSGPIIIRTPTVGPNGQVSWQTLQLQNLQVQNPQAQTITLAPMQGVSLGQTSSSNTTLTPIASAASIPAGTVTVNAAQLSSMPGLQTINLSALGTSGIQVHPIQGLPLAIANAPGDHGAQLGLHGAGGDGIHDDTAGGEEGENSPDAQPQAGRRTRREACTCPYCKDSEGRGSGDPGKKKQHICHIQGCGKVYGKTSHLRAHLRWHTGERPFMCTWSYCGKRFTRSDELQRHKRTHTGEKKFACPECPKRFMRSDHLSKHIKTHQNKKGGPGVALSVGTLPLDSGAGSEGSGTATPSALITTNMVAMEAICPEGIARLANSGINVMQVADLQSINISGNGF

Key:
[1] = test system: NF-kB (HeLa nuclear extract) (Homo sapiens); experiment: footprint; settings: protein in an extract, protein details: HeLa nuclear extract, Promega, label: 5'-RuBpy, 3'-biotin on SEQ 1 strand
[2] = biological target: SP-1 (HeLa extract) (Homo sapiens) (UniProt P08047); experiment: footprint; settings: protein in an extract; protein details: HeLa cell extract; label: 5'-ruthenium, 3'-biotin on SEQ 3 strand

## AGTTGAGGGGACTTTCCCAGGC (double strand) [NF-kB consensus substrate, all phosphodiester]
[1]; similar specificity, lower specific ECL signals
  binding result: binds

## AGTTGAGGGGACTTTCCCAGGC (double strand) [NF-kB consensus substrate, phosphorothioate]
[1]; PS within bracketed nucleotides AGTTGAGG (5') and CCCAGGC (3') of the labelled strand, specific ECL 744155, reduced to 0 by 100-fold unlabelled NF-kB consensus DNA
  binding result: binds

## GATCGAACTGACCGCCCGCGGCCCGT (double strand) [SP-1 consensus substrate]
[2]
  binding result: binds
